PubChem BioAssay AID1508597, Cure First, 2020
Shown is an unselected part of about 2,100 reagents tested. 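Calls flag viability under 80% in either arm, not effects specific to rucaparib; the reference for percent is not stated.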 No sequences are given here. The record does not give: the 100% reference.

- Test: 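Genes whose silencing sensitises or protects ovarian cancer cells against rucaparib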 (primary screen)
- Cells: human ovarian carcinoma lines grown from tumours: OCI-P5x (papillary serous) and OCI-C5x (clear cell)
- Reagents: siRNA pool against human genes, 1.25 pmol siRNA per well
- Time to read-out: 72 h or 96 h, depending on the cell culture
- Conditions: rucaparib 20 µM (about IC30) or vehicle, present until read-out
- Detection: 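Luminescent ATP-based viability assay read 72 or 96 h after transfection, depending on culture, given as normalised percent viability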
- Scale: viability, normalised: higher = more viable cells remaining
- Active means: 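a well counts as a hit if its normalised viability is under 80 percent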
- Meaning of the calls: active = viability under 80%; inactive = viability 80% or more

With SP110 (GeneID 3431), rucaparib or vehicle Rucaparib, cell line OCI-C5x (clear cell), technical replicate 1, what was measured?
viability, normalised (%): 30; outcome: active

What is on record for SP110 (GeneID 3431), rucaparib or vehicle Rucaparib, cell line OCI-C5x (clear cell), technical replicate 2?
viability, normalised (%): 28; outcome: active

Which result is listed for SP110 (GeneID 3431), rucaparib or vehicle Rucaparib, cell line OCI-C5x (clear cell), technical replicate 3?
viability, normalised (%): 28.5; outcome: active

Which result is listed for SP110 (GeneID 3431), rucaparib or vehicle Rucaparib, cell line OCI-P5x (serous), technical replicate 1?
viability, normalised (%): 44.8; outcome: active

For SP110 (GeneID 3431), rucaparib or vehicle Rucaparib, cell line OCI-P5x (serous), technical replicate 2, how do the results read?
viability, normalised (%): 42.6; outcome: active

For SP110 (GeneID 3431), rucaparib or vehicle Rucaparib, cell line OCI-P5x (serous), technical replicate 3, what does the deposit list?
viability, normalised (%): 51.1; outcome: active

With SP110 (GeneID 3431), rucaparib or vehicle Vehicle, cell line OCI-C5x (clear cell), technical replicate 1, what was measured?
viability, normalised (%): 41.2; outcome: active

With SP110 (GeneID 3431), rucaparib or vehicle Vehicle, cell line OCI-C5x (clear cell), technical replicate 2, how do the results read?
viability, normalised (%): 38.9; outcome: active

For SP110 (GeneID 3431), rucaparib or vehicle Vehicle, cell line OCI-C5x (clear cell), technical replicate 3, what was measured?
viability, normalised (%): 24.7; outcome: active

What did the screen give for SP110 (GeneID 3431), rucaparib or vehicle Vehicle, cell line OCI-P5x (serous), technical replicate 1?
viability, normalised (%): 66.5; outcome: active

Which result is listed for SP110 (GeneID 3431), rucaparib or vehicle Vehicle, cell line OCI-P5x (serous), technical replicate 2?
viability, normalised (%): 55; outcome: active

Which result is listed for SP110 (GeneID 3431), rucaparib or vehicle Vehicle, cell line OCI-P5x (serous), technical replicate 3?
viability, normalised (%): 54.9; outcome: active
